This assay concerns the target T1, Cel-EAT-2-GFP (C. elegans non-alpha nAChR subunit EAT-2, GFP tagged) (C. elegans) (UniProt Q9U298).
T1 sequence: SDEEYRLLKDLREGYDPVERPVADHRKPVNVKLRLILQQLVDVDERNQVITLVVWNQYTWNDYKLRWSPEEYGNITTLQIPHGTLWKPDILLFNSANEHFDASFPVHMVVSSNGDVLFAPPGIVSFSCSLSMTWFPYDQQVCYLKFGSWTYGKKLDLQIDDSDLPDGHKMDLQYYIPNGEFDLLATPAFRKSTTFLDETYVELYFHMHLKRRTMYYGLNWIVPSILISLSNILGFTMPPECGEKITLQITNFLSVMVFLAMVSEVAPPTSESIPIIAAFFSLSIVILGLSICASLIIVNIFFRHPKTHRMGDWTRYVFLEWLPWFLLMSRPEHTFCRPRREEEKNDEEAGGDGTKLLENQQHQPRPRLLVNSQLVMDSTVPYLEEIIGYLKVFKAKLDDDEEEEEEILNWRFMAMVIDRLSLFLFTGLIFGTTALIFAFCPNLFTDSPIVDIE
The experiment in a line: co-IP; Xenopus oocyte membrane extracts; Cel-EAT-2-GFP immunoprecipitated with anti-GFP-Trap-A beads, Cel-EAT-18-His detected by Western blot with anti-His antibody; un-injected oocytes and oocytes injected with Cel-EAT-2-GFP alone as negative controls. (In general: Immunoblotting shows a protein as a band on a membrane.)

Amino acid sequences for entries named in this document (tags omitted). A change or cut given only in a name is not applied to a line headed by its entry.
UniProt Q86DB4: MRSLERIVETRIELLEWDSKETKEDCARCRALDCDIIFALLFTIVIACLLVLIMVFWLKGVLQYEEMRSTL

Results are given in words; binding and its absence hold for the method and conditions named. In cells and extracts the contact can be indirect. Binding calls can cover weak binding; strength is not graded here. Sequences can lack the tags named with a protein.

Take “Cel-EAT-18c-His (C. elegans EAT-18 isoform c, 6xHis tagged) (from UniProt Q86DB4)”: the binding entry is on record as “binds”.

Values taken from paper PMC7173930, “EAT-18 is an essential auxiliary protein interacting with the non-alpha nAChR subunit EAT-2 to form a functional receptor” (PLoS Pathogens, 2020).
